Experimental data taken from PubChem BioAssay AID493014 (National Center for Advancing Translational Sciences (NCATS), 2011).
The list shows a part of the results. The main result of the screen is listed elsewhere. These columns were measured beside it and carry no call. The list favours compounds with an active or inconclusive main result. The note in brackets gives the kind of curve behind each potency; many fits are weak.

Experiment: qHTS Assay to Find Inhibitors of Chronic Active B-Cell Receptor Signaling
Conditions: ABC-DLBCL IkBa-CBG/CBR reporter, luminescence ratio (green luciferase fused to IkBa over red control in TMD8 lymphoma cells), 4 h
Outline: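 TMD8 ABC-DLBCL cells carrying doxycycline-inducible green luciferase fused to IkappaBalpha plus unfused red luciferase were exposed to compounds (up to 46 uM) for 4 hrs at 37C. Activity came from the overlap-corrected green/red luminescence ratio.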

[1] = measured here: CBR red luminescence, cell number
[2] = measured here: IkBa-CBG green luminescence

SMILES	AC50 [1]	AC50 [2]
NC(=O)C1CCN(C(=O)COc2ccc3ccccc3c2)CC1	0.461 µM [falling, full curve]	
O=C(NN=C1CCCC1)c1sc2ccccc2c1Cl	12.6 µM [falling, partial curve, poor fit]	
Cc1ccc(C(=O)Nc2nc(-c3ccco3)c(-c3ccco3)s2)o1	0.00731 µM [falling, full curve, poor fit]	
O=C(CCNc1n[nH]c(=O)[nH]c1=O)N/N=C\c1ccc(Br)cc1	14.1 µM [rising, single point]	
COc1ccc(N(C(=O)CCl)C(C(=O)NCCc2ccccc2)c2cccs2)cc1 (centres undefined)	2.91 µM [falling, partial curve]	
COC(=O)C1=C(C)N(Cc2ccccc2)C(=NCCc2ccccn2)N[C@H]1c1cccc(C(F)(F)F)c1	11.2 µM [falling, partial curve]	
CC(=O)c1cccc(NC(=O)NCCc2c[nH]c3ccccc23)c1	25.1 µM [falling, partial curve]	
CCCc1cc(=O)n2[nH]c(-c3ccc(Br)cc3)cc2n1	3.66 µM [falling, full curve]	
Cn1c(SCc2cccnc2)nnc1-c1c[nH]c2ccccc12	14.6 µM [rising, single point]	
COc1ccccc1C(CCNCc1ccccc1)c1ccc(OC(C)C)cc1 (centres undefined)	15.8 µM [falling, single point]	
Cc1ccc(NC(=O)CCC(=O)N2CCC(C)CC2)c([N+](=O)[O-])c1	3.98 µM [rising, partial curve, poor fit]	
O=C(c1cc(-c2ccccc2)nc2ccccc12)N1CCc2ccccc2C1	29.1 µM [falling, partial curve, poor fit]	
O=C(CCc1nnc2ccc(NCc3ccccc3)nn12)NCC1CCN(C2CCCC2)C1 (centres undefined)	35.5 µM [rising, single point]	
Cc1ccc(NC(=O)CSc2nc(O)c(Cc3ccccc3)c(=O)n2-c2ccccc2)cc1	11.6 µM [falling, partial curve, poor fit]	
COc1ccc(-c2cc(C(F)F)n3ncc(C(=O)N4CCc5ccccc54)c3n2)cc1	3.55 µM [falling, full curve]	6.31 µM [rising, full curve, poor fit]
CCc1ccc2c(Cl)c(C(=O)N/N=C/c3c[nH]c4ccccc34)sc2c1	35.5 µM [falling, single point]	
CCc1ccccc1OCC(=O)NNCC(=O)Nc1cccc(C#N)c1	29.1 µM [falling, partial curve, poor fit]	
CCc1cccc2c(C(=O)COC(=O)c3c(C)noc3C)c[nH]c12	17.8 µM [falling, partial curve, poor fit]	
CN1C(=O)C2(c3ccccc31)C1CCCC=C1C(C#N)=C(N)C2(C#N)C#N (centres undefined)	1.84 µM [falling, partial curve, poor fit]	
CCN1C(=O)C(Cc2nc3ccccc3c(=O)n2C)c2ccccc21 (centres undefined)	20 µM [falling, single point]	
CCCN1CCC(=O)N(CCSc2ccc(C)cc2)CC1	0.891 µM [falling, full curve, poor fit]	
CCN(CC)C(=O)Cn1cc(C(=O)C(=O)NCCc2ccccc2)c2ccccc21	1.58 µM [falling, full curve]	

Compounds shown so far containing a cyano group (two):
SMILES	AC50 [1]	AC50 [2]
CCc1ccccc1OCC(=O)NNCC(=O)Nc1cccc(C#N)c1	29.1 µM [falling, partial curve, poor fit]	
CN1C(=O)C2(c3ccccc31)C1CCCC=C1C(C#N)=C(N)C2(C#N)C#N (centres undefined)	1.84 µM [falling, partial curve, poor fit]	

The listing continues.

SMILES	AC50 [1]	AC50 [2]
CCOC(=O)c1cc(CC)sc1N	25.1 µM [rising, single point]	
Nc1c(S(=O)(=O)c2cccs2)c2nc3ccccc3nc2n1Cc1ccccc1	0.164 µM [falling, full curve, poor fit]	
CCOc1cc(S(=O)(=O)Nc2ccc(CC)cc2)ccc1Cl	29.1 µM [falling, single point]	
CCCC(C)NC(=O)CSc1nc(-c2ccccc2)cn1N (centres undefined)	35.5 µM [rising, single point]	
CCCn1c(NCc2c[nH]c3ccccc23)nc2ccccc21	32.6 µM [falling, single point]	
O=C(c1ccc(OC2CCN(CCc3ccccc3)CC2)cc1)N1CCC(CO)CC1	2.51 µM [falling, partial curve, poor fit]	
COc1ccc(C(=O)n2c(-c3ccco3)nc3ccccc32)cc1		35.5 µM [falling, partial curve, poor fit]
O=C(c1ccco1)N(Cc1ccccc1)Cc1ccccn1	6.31 µM [rising, single point]	
CCOC1(C)OCC(=O)[C@]2(CCC3C4CCC5=CC(=O)C=CC5(C)C4C(=O)CC32C)O1 (some centres undefined)	16.4 µM [rising, partial curve]	
CCOC(=O)C(=O)NN=C(c1ccccc1)c1ccccc1	0.282 µM [rising, full curve, poor fit]	
O=c1[nH]c(-[n+]2ccc3ccccc3c2)c(/C=N/N=C(\[O-])c2ccccc2)s1	7.08 µM [falling, full curve]	
O=C(NCc1c(F)cccc1F)c1cc(COc2c(F)cccc2F)on1	35.5 µM [rising, single point]	
CO/N=C/c1ccc(Oc2ccc([N+](=O)[O-])cc2[N+](=O)[O-])c(OC)c1	29.1 µM [falling, single point]	29.1 µM [falling, single point]
CN(C(=O)CSc1cccc[n+]1[O-])C1CCCCC1	4.61 µM [falling, partial curve]	25.9 µM [falling, single point]
Cc1cc(N/N=C/c2ccc(F)cc2)nc(NCc2ccccc2)n1		15.8 µM [falling, single point]
CCn1c(SCC(=O)Nc2ccc3c(c2)OCO3)nc2ccccc21	8.2 µM [falling, partial curve, poor fit]	
COc1ccc(CNCCC(c2ccc(OC(C)C)cc2)c2ccccc2OC)cc1 (centres undefined)	17.8 µM [falling, single point]	
COc1cc(OC)c2c(-c3cccc(-c4ccc(O)cc4)c3)cc(=O)oc2c1	2.59 µM [rising, full curve]	3.66 µM [falling, full curve]
COc1ccc(C=NNC(=O)c2cc(C)oc2C)cc1O	9.2 µM [falling, partial curve]	
Cc1ccc(NC(=O)CC2Nc3ccccc3NC2=O)cc1Cl (centres undefined)	7.08 µM [falling, partial curve]	
CCCNc1c(N)c(=O)oc2ccccc12	0.291 µM [falling, full curve]	
CCCCOc1ccccc1NC(=O)c1ccco1	25.9 µM [falling, single point]	

SMILES	AC50 [1]	AC50 [2]
O=C(Nc1nc2c(c(=O)[nH]1)CCCC2)C1CC1	11.6 µM [falling, partial curve, poor fit]	
O=C1NC(=Nc2ccccc2Cl)S/C1=C\c1ccc(C(=O)O)cc1	0.501 µM [falling, full curve]	
Cc1ccc(N=Cc2c(O)c3ccccc3oc2=O)c(C)c1	6.31 µM [falling, partial curve, poor fit]	
COc1ccc(-n2c(-c3ccc(Cl)cc3)c[nH]c2=S)cc1	35.5 µM [falling, single point]	
N#CC(C#N)=Cc1ccc(-c2ccc(S(=O)(=O)N=C(N)N)cc2)o1	14.6 µM [falling, partial curve, poor fit]	
COc1cc(OC)c(C2Oc3nc(SC)nnc3-c3ccccc3N2C(C)=O)cc1OC (centres undefined)	20.6 µM [rising, single point]	
Cn1nc(OCc2ccccc2)ccc1=O	2.82 µM [falling, partial curve, poor fit]	
CSc1nc(C)cc(OCCO)n1	0.231 µM [falling, full curve, poor fit]	
COc1cc2cc(CN(C(=O)Nc3ccccc3)C3CCCC3)c(=O)[nH]c2cc1OC	28.2 µM [falling, single point]	
N/C(=N\OC(=O)/C=C/c1ccc(Br)cc1)c1ccccn1	4.11 µM [rising, single point]	
Cc1csc(=O)n1CCC(=O)OCC(=O)NNC(=O)c1ccc(Br)cc1	13 µM [rising, partial curve, poor fit]	
O=C(N/N=C/c1c(Cl)cccc1Cl)c1n[nH]c2c1CCCC2	18.4 µM [falling, single point]	
Cc1ccc(S(=O)(=O)CC(C)(O)CS(=O)(=O)c2ccc(C)cc2)cc1	35.5 µM [rising, single point]	
O=C(NCc1ccco1)c1cc(-c2ccncc2)nc2ccccc12	35.5 µM [falling, single point]	
Cc1cccc(OCC(=O)Nc2nccs2)c1C	10 µM [falling, partial curve, poor fit]	
O=C(COc1ccc(F)cc1)NCC1(N2CCOCC2)CCCCC1	29.1 µM [rising, partial curve, poor fit]	
Cc1cnc(CN2CCc3c([nH]c4ccccc34)C2CC(C)C)[nH]1 (centres undefined)	17.8 µM [falling, single point]	
Cc1cc([N+](=O)[O-])nn1Cc1ccccc1F	0.112 µM [rising, full curve, poor fit]	
COc1ccc(CC2(CO)CCN(Cc3cccc(OC)c3OC)CC2)cc1	8.91 µM [rising, partial curve, poor fit]	
COc1ccccc1CNC(=O)CSc1ccc(C)cc1		29.1 µM [falling, partial curve, poor fit]
N#C/C(=C\c1cn[nH]c1-c1ccc(Cl)cc1)C(=O)NCc1ccccc1	3.66 µM [rising, single point]	
